# In the supplement of paper PMC8728848:
# The other results are listed elsewhere or left out.
# B1: Epa20 (Candida glabrata) (protein)
# chain: MGSSHHHHHHSSGLVPRGSHMASSNIPNNYPLGCSNKYSGHLPGLKMELYSYNYVNPRHPDPQNPGKLDQLYDPNLLGTYECFDSSYKDINYPRVGYKSKTLIGRSDGVSGILNFNFVPPWGCMPQKGQLPPAYNFKSNITLSNFTMILFGYFKPKISGNHIFSLHGDDLIYLNFGAGNAFDCCRQESSADNFGNYQAFSLWGINWEKKTLTVYLDMNTYYPIRIFYNNRDYQAIFNFSFKTEFDSSPVIDFQDYFFFLRDIDGGCPGEV
# Tests used:
# Experiment in all cases: glycan array binding signal (z-score within array); higher = stronger binding
# Conditions in all cases: glycan notation: IUPAC condensed, linker removed
# [1] = target: Neu5Ac(a2-3)Gal6S(b1-4)[Fuc(a1-3)]GlcNAc
# How it was run: (§1)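 Glycan array data came from 3228 arrays in the Consortium for Functional Glycomics database, and only arrays with an available protein sequence were kept. Glycan names were put into IUPAC-condensed notation, and columns mapping to the same glycan were averaged. The binding signal is a within-array Z-score, averaged across arrays of one protein sequence run at different concentrations or buffers and across linkers. A negative Z-score can be read as non-binding.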
# [2] = target: Neu5Ac(a2-3)GalNAc
# How it was run: as §1
# [3] = target: Neu5Ac(a2-3)GalNAc(b1-4)GlcNAc
# How it was run: as §1
# [4] = target: Neu5Ac(a2-3)[GalNAc(b1-4)]Gal(b1-4)Glc
# How it was run: as §1
# [5] = target: Neu5Ac(a2-3)[GalNAc(b1-4)]Gal(b1-4)GlcNAc
# How it was run: as §1
# [6] = target: Neu5Ac(a2-3)[GalNAc(b1-4)]Gal(b1-4)GlcNAc(b1-3)GalNAc
# How it was run: as §1
# [7] = target: Neu5Ac(a2-3)[Neu5Ac(a2-6)]GalNAc
# How it was run: as §1
# [8] = target: Neu5Ac(a2-6)Gal
# How it was run: as §1
# [9] = target: Neu5Ac(a2-6)Gal(b1-3)GlcNAc(b1-3)[Gal(b1-4)GlcNAc(b1-6)]Gal(b1-4)Glc
# How it was run: as §1
# [10] = target: Neu5Ac(a2-6)Gal(b1-4)Glc
# How it was run: as §1
# [11] = target: Neu5Ac(a2-6)Gal(b1-4)GlcNAc
# How it was run: as §1
# [12] = target: Neu5Ac(a2-6)Gal(b1-4)GlcNAc(b1-2)Man
# How it was run: as §1
# [13] = target: Neu5Ac(a2-6)Gal(b1-4)GlcNAc(b1-2)Man(a1-3)Man(b1-4)GlcNAc(b1-4)GlcNAc
# How it was run: as §1
# [14] = target: Neu5Ac(a2-6)Gal(b1-4)GlcNAc(b1-2)Man(a1-3)[Gal(b1-4)GlcNAc(b1-2)Man(a1-6)]Man(b1-4)GlcNAc(b1-4)GlcNAc
# How it was run: as §1
# [15] = target: Neu5Ac(a2-6)Gal(b1-4)GlcNAc(b1-2)Man(a1-3)[GlcNAc(b1-2)Man(a1-6)]Man(b1-4)GlcNAc(b1-4)GlcNAc
# How it was run: as §1
# [16] = target: Neu5Ac(a2-6)Gal(b1-4)GlcNAc(b1-2)Man(a1-3)[GlcNAc(b1-4)][Neu5Ac(a2-6)Gal(b1-4)GlcNAc(b1-2)Man(a1-6)]Man(b1-4)GlcNAc(b1-4)GlcNAc
# How it was run: as §1
# [17] = target: Neu5Ac(a2-6)Gal(b1-4)GlcNAc(b1-2)Man(a1-3)[Man(a1-6)]Man(b1-4)GlcNAc(b1-4)GlcNAc
# How it was run: as §1
# [18] = target: Neu5Ac(a2-6)Gal(b1-4)GlcNAc(b1-2)Man(a1-3)[Neu5Ac(a2-3)Gal(b1-4)GlcNAc(b1-2)Man(a1-6)]Man(b1-4)GlcNAc(b1-4)GlcNAc
# How it was run: as §1
# [19] = target: Neu5Ac(a2-6)Gal(b1-4)GlcNAc(b1-2)Man(a1-3)[Neu5Ac(a2-6)Gal(b1-4)GlcNAc(b1-2)Man(a1-6)]Man(b1-4)GlcNAc(b1-4)GlcNAc
# How it was run: as §1
# [20] = target: Neu5Ac(a2-6)Gal(b1-4)GlcNAc(b1-2)Man(a1-3)[Neu5Ac(a2-6)Gal(b1-4)GlcNAc(b1-2)Man(a1-6)]Man(b1-4)GlcNAc(b1-4)[Fuc(a1-6)]GlcNAc
# How it was run: as §1
# [21] = target: Neu5Ac(a2-6)Gal(b1-4)GlcNAc(b1-2)Man(a1-6)Man(b1-4)GlcNAc(b1-4)GlcNAc
# How it was run: as §1
# [22] = target: Neu5Ac(a2-6)Gal(b1-4)GlcNAc(b1-2)Man(a1-6)[Gal(b1-4)GlcNAc(b1-2)Man(a1-3)]Man(b1-4)GlcNAc(b1-4)GlcNAc
# How it was run: as §1
# [23] = target: Neu5Ac(a2-6)Gal(b1-4)GlcNAc(b1-2)Man(a1-6)[GlcNAc(b1-2)Man(a1-3)]Man(b1-4)GlcNAc(b1-4)GlcNAc
# How it was run: as §1
# [24] = target: Neu5Ac(a2-6)Gal(b1-4)GlcNAc(b1-2)Man(a1-6)[Man(a1-3)]Man(b1-4)GlcNAc(b1-4)GlcNAc
# How it was run: as §1
# [25] = target: Neu5Ac(a2-6)Gal(b1-4)GlcNAc(b1-2)[Neu5Ac(a2-6)Gal(b1-4)GlcNAc(b1-4)]Man(a1-3)[GlcNAc(b1-4)][Neu5Ac(a2-6)Gal(b1-4)GlcNAc(b1-2)[Neu5Ac(a2-6)Gal(b1-4)GlcNAc(b1-6)]Man(a1-6)]Man(b1-4)GlcNAc(b1-4)GlcNAc
# How it was run: as §1
# [26] = target: Neu5Ac(a2-6)Gal(b1-4)GlcNAc(b1-2)[Neu5Ac(a2-6)Gal(b1-4)GlcNAc(b1-4)]Man(a1-3)[GlcNAc(b1-4)][Neu5Ac(a2-6)Gal(b1-4)GlcNAc(b1-4)Man(a1-6)]Man(b1-4)GlcNAc(b1-4)GlcNAc
# How it was run: as §1
# [27] = target: Neu5Ac(a2-6)Gal(b1-4)GlcNAc(b1-2)[Neu5Ac(a2-6)Gal(b1-4)GlcNAc(b1-6)]Man(a1-6)[Neu5Ac(a2-6)Gal(b1-4)GlcNAc(b1-2)Man(a1-3)][GlcNAc(b1-4)]Man(b1-4)GlcNAc(b1-4)GlcNAc
# How it was run: as §1
# [28] = target: Neu5Ac(a2-6)Gal(b1-4)GlcNAc(b1-3)Gal(b1-3)GlcNAc
# How it was run: as §1
# [29] = target: Neu5Ac(a2-6)Gal(b1-4)GlcNAc(b1-3)Gal(b1-4)GlcNAc
# How it was run: as §1
# [30] = target: Neu5Ac(a2-6)Gal(b1-4)GlcNAc(b1-3)Gal(b1-4)GlcNAc(b1-2)Man(a1-3)[Neu5Ac(a2-6)Gal(b1-4)GlcNAc(b1-3)Gal(b1-4)GlcNAc(b1-2)Man(a1-6)]GalNAc
# How it was run: as §1
# [31] = target: Neu5Ac(a2-6)Gal(b1-4)GlcNAc(b1-3)Gal(b1-4)GlcNAc(b1-3)Gal(b1-4)GlcNAc
# How it was run: as §1
# [32] = target: Neu5Ac(a2-6)Gal(b1-4)GlcNAc(b1-3)Gal(b1-4)GlcNAc(b1-3)Gal(b1-4)GlcNAc(b1-2)Man(a1-3)[Neu5Ac(a2-6)Gal(b1-4)GlcNAc(b1-3)Gal(b1-4)GlcNAc(b1-3)Gal(b1-4)GlcNAc(b1-2)Man(a1-6)]GalNAc
# How it was run: as §1
# [33] = target: Neu5Ac(a2-6)Gal(b1-4)GlcNAc(b1-3)Gal(b1-4)GlcNAc(b1-3)GalNAc
# How it was run: as §1
# [34] = target: Neu5Ac(a2-6)Gal(b1-4)GlcNAc(b1-3)Gal(b1-4)GlcNAc(b1-3)[Neu5Ac(a2-6)Gal(b1-4)GlcNAc(b1-3)Gal(b1-4)GlcNAc(b1-6)]GalNAc
# How it was run: as §1
# [35] = target: Neu5Ac(a2-6)Gal(b1-4)GlcNAc(b1-3)Gal(b1-4)GlcNAc(b1-6)[Gal(b1-3)]GalNAc
# How it was run: as §1
# [36] = target: Neu5Ac(a2-6)Gal(b1-4)GlcNAc(b1-3)Gal(b1-4)[Fuc(a1-3)]GlcNAc(b1-3)Gal(b1-4)[Fuc(a1-3)]GlcNAc
# How it was run: as §1
# [37] = target: Neu5Ac(a2-6)Gal(b1-4)GlcNAc(b1-3)GalNAc
# How it was run: as §1
binder,measurement,setting,value
B1,glycan array binding signal (z-score),[1],-0.803
same,glycan array binding signal (z-score),[2],-0.182
same,glycan array binding signal (z-score),[3],-0.203
same,glycan array binding signal (z-score),[4],-1.14
same,glycan array binding signal (z-score),[5],-0.734
same,glycan array binding signal (z-score),[6],1.15
same,glycan array binding signal (z-score),[7],-0.143
same,glycan array binding signal (z-score),[8],0.044
same,glycan array binding signal (z-score),[9],-0.719
same,glycan array binding signal (z-score),[10],-0.117
same,glycan array binding signal (z-score),[11],-0.069
same,glycan array binding signal (z-score),[12],0.053
same,glycan array binding signal (z-score),[13],0.128
same,glycan array binding signal (z-score),[14],0.082
same,glycan array binding signal (z-score),[15],-0.177
same,glycan array binding signal (z-score),[16],-0.397
same,glycan array binding signal (z-score),[17],0.402
same,glycan array binding signal (z-score),[18],-0.101
same,glycan array binding signal (z-score),[19],0.06
same,glycan array binding signal (z-score),[20],0.171
same,glycan array binding signal (z-score),[21],-0.108
same,glycan array binding signal (z-score),[22],-0.351
same,glycan array binding signal (z-score),[23],0.444
same,glycan array binding signal (z-score),[24],0.245
same,glycan array binding signal (z-score),[25],-0.267
same,glycan array binding signal (z-score),[26],-0.502
same,glycan array binding signal (z-score),[27],-0.412
same,glycan array binding signal (z-score),[28],0.113
same,glycan array binding signal (z-score),[29],-0.606
same,glycan array binding signal (z-score),[30],2.15
same,glycan array binding signal (z-score),[31],-0.948
same,glycan array binding signal (z-score),[32],3.97
same,glycan array binding signal (z-score),[33],0.784
same,glycan array binding signal (z-score),[34],1.17
same,glycan array binding signal (z-score),[35],0.103
same,glycan array binding signal (z-score),[36],-0.116
same,glycan array binding signal (z-score),[37],0.279

# Fetched one by one from the entries so far, 3 records:
binder,measurement,setting,value
B1,glycan array binding signal (z-score),[19],0.06
same,glycan array binding signal (z-score),[26],-0.502
same,glycan array binding signal (z-score),[36],-0.116
